Laboratory results published in article PMC5508227.
Results are given in words; binding and its absence hold for the method and conditions named. Binding seen in cells or lysates may run through a third protein. Some results given as binding are weak or reduced against the parent protein; the word gives no strength. Blank lines part the entries; values can stand above or below the molecule they belong to.

Amino acid sequences for entries named in this document (tags omitted).
UniProt P56477: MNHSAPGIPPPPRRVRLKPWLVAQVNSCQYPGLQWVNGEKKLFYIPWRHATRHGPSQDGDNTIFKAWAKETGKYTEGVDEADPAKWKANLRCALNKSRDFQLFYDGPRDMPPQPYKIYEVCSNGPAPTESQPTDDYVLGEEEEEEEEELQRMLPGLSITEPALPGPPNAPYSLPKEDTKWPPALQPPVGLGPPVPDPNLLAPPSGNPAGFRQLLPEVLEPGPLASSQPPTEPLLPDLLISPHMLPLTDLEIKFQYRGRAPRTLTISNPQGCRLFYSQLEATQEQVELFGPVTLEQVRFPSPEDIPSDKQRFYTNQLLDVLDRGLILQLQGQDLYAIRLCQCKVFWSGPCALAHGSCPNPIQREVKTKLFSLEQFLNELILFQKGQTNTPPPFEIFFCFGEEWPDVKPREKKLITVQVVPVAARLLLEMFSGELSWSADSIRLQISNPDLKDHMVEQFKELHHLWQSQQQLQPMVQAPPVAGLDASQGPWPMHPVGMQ

Columns and labels:
[1] = target: T1, Class A scavenger receptor (SR-A) (mouse (endogenous in peritoneal macrophages and RAW264.7)) (UniProt P30204); experiment: co-IP
T1 sequence: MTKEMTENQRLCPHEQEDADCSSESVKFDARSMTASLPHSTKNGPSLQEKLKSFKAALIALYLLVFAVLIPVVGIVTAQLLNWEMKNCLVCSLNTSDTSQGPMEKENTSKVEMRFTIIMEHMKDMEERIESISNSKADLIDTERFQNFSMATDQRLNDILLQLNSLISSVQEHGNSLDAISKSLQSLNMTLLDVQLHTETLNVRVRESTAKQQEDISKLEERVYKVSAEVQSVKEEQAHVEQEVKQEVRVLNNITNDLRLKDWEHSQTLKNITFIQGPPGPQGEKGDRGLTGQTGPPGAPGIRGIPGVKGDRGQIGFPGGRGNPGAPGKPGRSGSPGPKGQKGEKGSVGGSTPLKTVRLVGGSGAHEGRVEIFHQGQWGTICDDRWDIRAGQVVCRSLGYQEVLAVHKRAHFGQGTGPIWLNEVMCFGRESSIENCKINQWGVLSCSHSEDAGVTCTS

[2] = target: T1, Class A scavenger receptor (SR-A) (mouse (endogenous in peritoneal macrophages and RAW264.7)); experiment: co-IP; cytoplasm of RAW264.7 cells, with SR-A siRNA knock-down or forced expression of SR-A (pcDNA3.1-MSR); immunoblot
[3] = target: T2, SR-A expressed from pcDNA3.1-MSR (forced expression) (UniProt P30204); experiment: as above
T2 sequence: T1 sequence

[4] = target: interferon-regulatory factor 5 (IRF5) (mouse (endogenous in peritoneal macrophages and RAW264.7)) (UniProt P56477); experiment: co-IP

binding [1]: binds
binding [2]: binds
binding [3]: binds
Molecule: interferon-regulatory factor 5 (IRF5) (from UniProt P56477 1-497)

binding [4]: binds
B1: Class A scavenger receptor (SR-A) (receptor, UniProt P30204 1-458)
chain: T1 sequence
